Measurements reported in US20260227407A1, “SYNTHETIC GLYCOPEPTIDES AND DERIVATIVES FOR THE EARLY-STAGE DETECTION OF CANCER BIOMARKERS IN MUC1-POSITIVE TUMORS” (FUNDACIÓN RIOJA SALUD, priority 2023, published 2026).

Test system: 5E5 (anti-MUC1) antibody
Test: Antigen-antibody binding studies by surface plasmon resonance (SPR)
Set-up: species or system mouse
Conditions: 5E5, 20° C. and 7.5 pH
Description: Surface plasmon resonance (SPR) experiments were performed with a Biacore X-100 apparatus (Biacore, GE) in HBS-EP buffer solution at 7.5 pH (10 mM Hepes, 150 mM NaCl, 3 mM EDTA, with 2% DMSO and 0.05% Tween X100) at […]. This is the running buffer. The 5E5 antibody (from Abcam) was immobilised on a CM5 sensor chip (Biacore, GE) following the standard amine coupling method.^30 Briefly, the carboxymethyl dextran surface of flow cell 2 was activated by a 7 min injection of a 1:1 ratio of a 0.4 M aqueous solution of 1-ethyl-3-(3-dimethylaminopropyl) carbodiimide (EDC) and 0.1 M sulfo-N-hydroxysuccinimide. As such, the antibody was bound to the surface using various dilutions in 10 mM sodium acetate, 4.0. pH during a 7 min injection. […] The flow cell 1 was used as a reference and treated as the flow cell 2 (amine coupling method) without protein. Before use, 50 mM stock solutions of peptide ligand were diluted to the final concentration in the running buffer. Therefore, a series of different compounds were injected into the sensor chip at a flow rate of 30 μl/min for a period of 1 min followed by a dissociation period of 1 min. No regeneration was required. FIGS. 2A and 2B show the response-concentration curves obtained for the binding of glycopeptide 21 and 24, respectively, towards the 5E5 (anti-MUC1) antibody at 20° C. in SPR experiments. […]

| Substance | Rmax [RU] |
| --- | --- |
| GGGGPAPGST(GalNAc)APPA (GalNAc glycosylation; APPA extension) [Glycopeptide 21, reference compound] | 23 |
| GGGGPAPGST(GalNCOEt)APPA (GalNCOEt glycosylation; APPA extension) [Glycopeptide 24] | 23 |
